PMC12040169 (PLOS Biology, 2025)
The other results are listed elsewhere or left out.

system: T1, CTL2-GFP (C. trachomatis L2/434/Bu, GFP-expressing); design: species or system HeLa; Intracellular C. trachomatis growth in HeLa cells, bulk GFP fluorescence relative to DMSO; settings: bulk GFP, single well; 28.5 h, 10 µM; inhibitor
T1 construct: L2/434/Bu, GFP-expressing

First: Cc1ccc(S(=O)(=O)Nc2ccc(Nc3nc(-c4ccccc4)cn4ccnc34)cc2)cc1 [CBK037303]
Second: O=C(CCS(=O)(=O)c1ccccc1)N(Cc1cccnc1)c1nc2c(F)cccc2s1 [CBK294422]
The “% of control remaining” value of the first is higher: 162.174% for the first, 154.201% for the second.

First: CCCCn1nc(Cn2cncn2)nc1CC1NC(=O)c2ccccc21 (stereo not shown) [CBK307395]
Second: COCCn1cnnc1C(C)NC(=O)N(C)Cc1nc2ccccc2s1 (stereo not shown) [CBK307427]
The “% of control remaining” value of the first is lower: 85.3161% for the first, 136.228% for the second.

Going from `CN(Cc1ccccc1)S(=O)(=O)c1ccccc1[N+](=O)[O-]` [CBK261458] to `CC(C)CNC(=O)N(CCc1ccccc1)Cc1ccccc1` [CBK155339], the “% of control remaining” value rises from 100% to 108.16%.

Compared with `Fc1ccc(C2CCc3n[nH]cc3C2)cc1` (stereo not shown) [CBK015957C], `Fc1ccc([C@@H]2CN(Cc3ccccn3)C[C@H]2c2cc[nH]n2)cc1` [CBK285416] is lower in “% of control remaining” value: 160.84% for the first, 89.4666% for the second.

Compared with `Cc1ccc(Cn2ncc3c(C(=O)N4CCC(N(C)S(C)(=O)=O)CC4)cc(C)nc32)cc1` [CBK298280], `COC(=O)c1cc(CN2CCCN(S(=O)(=O)c3ccc(-n4cnc(Cl)c4Cl)cc3)CC2)cn1C` [CBK063080] is higher in “% of control remaining” value: 106.471% for the first, 110.685% for the second.

First: O=C(COc1ccccc1Cl)Nc1nnc[nH]1 [CBK287946]
Second: COc1ccc(C(=O)NCc2ccccc2)c(OC)n1 [CBK200190]
The “% of control remaining” value of the first is higher: 139.981% for the first, 104.575% for the second.

Compared with `O=[N+]([O-])c1ccc(/C=N/Nc2nnc3c(n2)[nH]c2ccccc23)cc1` [CBK261486], `c1cncc(-c2nnc(SCc3nc4ccccc4[nH]3)o2)c1` [CBK264543] is higher in “% of control remaining” value: 106.262% for the first, 118.694% for the second.

Compared with `O=C(Nc1ccnn1Cc1cc(Br)cs1)c1ccc2ncsc2c1` [CBK296713], `CCOc1ccc(-c2csc(NC(=O)c3cccnc3)n2)cc1` [CBK094747] is lower in “% of control remaining” value: 122.103% for the first, 110.981% for the second.

First: O=c1cc(-c2cccc([N+](=O)[O-])c2)c2ccc(OCc3cc4c(cc3Cl)OCO4)cc2o1 [CBK265652]
Second: COc1ccc(NC(=O)c2cc([N+](=O)[O-])ccc2N2CCN(C)CC2)cc1 [CBK263017]
The “% of control remaining” value of the first is lower: 95.2823% for the first, 119.253% for the second.

Compared with `O=C(c1ccc(Br)o1)N1CCc2ccc(S(=O)(=O)N3CCOCC3)cc21` [CBK028953], `Nc1ncc(-c2cccc(O)c2)nc1N1CCOCC1` [CBK063376] is higher in “% of control remaining” value: 98.506% for the first, 113.034% for the second.

Compared with `NC(=O)CN1CCCC2(CCCCc3ccccc3OCC(=O)NC2)C1` (stereo not shown) [CBK292058], `CCC(=O)N[C@H]1CC[C@]2(CC1)CNC(=O)c1ccccc1O2` [CBK281681] is lower in “% of control remaining” value: 99.7143% for the first, 76.6483% for the second.

First: CN(C)CCN1CCN(c2nc(-c3cccnc3)cnc2N)CC1 [CBK063503]
Second: Clc1ccc(COc2nccnc2N2CCN(CCOc3ccccc3)CC2)cc1Cl [CBK083091T]
The “% of control remaining” value of the first is higher: 133.389% for the first, 87.6871% for the second.

Compared with `Cc1cnc2[nH]c(C(F)(F)F)c(CN3CCSCC3)c2c1` [CBK284767], `Cc1nn(CC(=O)NC2CCC2)c(=O)c2cc3sccc3n12` [CBK284110] is lower in “% of control remaining” value: 159.072% for the first, 96.1693% for the second.

Going from `O=C(CN1CCCCC1CN1CCOCC1)NCc1ccccn1` (stereo not shown) [CBK304375] to `O=S(=O)(c1ccc(Br)cc1F)N1CCCCC1CO` (stereo not shown) [CBK051302], the “% of control remaining” value rises from 85.5307% to 115.253%.

First: NC1CCN(c2ncccn2)CC1 [CBK174054]
Second: c1csc(N2CCN(c3nccn4cnnc34)CC2)n1 [CBK305185]
The “% of control remaining” value of the first is lower: 91.6488% for the first, 104.425% for the second.

First: O=C(NC1CC1)[C@@H]1C=CCN1C(=O)Nc1ccccc1C(F)(F)F [CBK284276]
Second: CC(C)NC(=O)N[C@H]1CC[C@]2(CC1)CC(=O)c1ccccc1O2 [CBK283389]
The “% of control remaining” value of the first is lower: 77.9904% for the first, 83.2171% for the second.

Going from `Cc1ocnc1C(=O)Nc1nc2c(cc1C#N)CCC2` [CBK306365] to `CC(Oc1ccc(Br)cc1)C(=O)Nc1nc2c(s1)CCC2` (stereo not shown) [CBK296723], the “% of control remaining” value rises from 82.4454% to 120.509%.

Compared with `CCOC(=O)Cn1ccc2ccnc(-c3cccc(OC)c3)c21` [CBK284707], `CNC(=O)c1ccc(-c2cccc(COC)c2)nc1NCC1CC1` [CBK106322] is higher in “% of control remaining” value: 81.4295% for the first, 196.4% for the second.

Going from `Cc1[nH]nc(Nc2ccc(C(=O)O)cc2)c1[N+](=O)[O-]` [CBK262726] to `Cc1cc(Nc2ccccc2C)c2cc(C(=O)O)ccc2n1` [CBK269458C], the “% of control remaining” value falls from 125.172% to 73.726%.

Going from `CC(C)CNc1nc2c(ncn2[C@H]2C[C@@H](O)[C@@H](CO)O2)c(=O)[nH]1` [CBK201198] to `COC1C(O)C(CO)OC1n1cnc2cnc(N)nc21` (stereo not shown) [CBK201290], the “% of control remaining” value falls from 148.321% to 124.002%.

Compared with `N#Cc1ccc(COc2cccc(C(F)(F)F)c2)cc1` [CBK002811], `COc1cccc(CN2CCN(Cc3ccco3)[C@@H](C)C2)c1` [CBK284265] is higher in “% of control remaining” value: 72.6873% for the first, 125.327% for the second.

Compared with `O=C(O)CCc1ccc(-c2ccc(Br)cc2)n1-c1ccccc1O` [CBK131892], `Cc1ccc2cc(C3CC(c4ccccc4)=NN3C(=O)CCC(=O)O)c(=O)[nH]c2c1` (stereo not shown) [CBK296127] is higher in “% of control remaining” value: 96.5833% for the first, 103.293% for the second.

First: CC1CCCC(C)N1C(=O)Cn1cnc2c(Cl)cc(Cl)cc2c1=O (stereo not shown) [CBK306222]
Second: CCOC(=O)c1cnn(C2CCCN(c3cccc(C#N)n3)C2)c1 (stereo not shown) [CBK306430]
The “% of control remaining” value of the first is lower: 139.669% for the first, 142.604% for the second.

First: CCCNC(=O)CN(C)Cc1cn2cccc(C)c2n1 [CBK304800]
Second: CC(C)CNc1nc(-c2cccc(O)c2)cnc1N [CBK063862]
The “% of control remaining” value of the first is lower: 113.596% for the first, 145.123% for the second.

Going from `Cc1ccc(-n2nnnc2SCC(=O)O)cc1` [CBK287048] to `O=C(Nc1ccc(Cn2cncn2)cc1)C1CC2C=CC1C21CC1` (stereo not shown) [CBK281399], the “% of control remaining” value falls from 133.849% to 130.558%.

First: CC(=O)c1ccc(C)cc1OC(=O)C1CCCN(S(C)(=O)=O)C1 (stereo not shown) [CBK306140]
Second: O=C1CCCN1CCCNc1nccnc1-c1ccncc1 [CBK036832]
The “% of control remaining” value of the first is lower: 103.574% for the first, 142.665% for the second.
